PubChem BioAssay AID1259308, NCATS – 2017
The deposit covers about 59,000 reagents; below is a random part of them. About 1,510 of all reagents (2.6%) count as active. 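Calls use total luciferase alone and ignore viability, so some active siRNAs may act by altering cell number.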 Entries without a mark were called inactive. Reagents against one gene are numbered here. Not all columns of the deposit are shown.

Test: 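Genes whose loss raises luciferase production in HEK293 cells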 (primary screen)
System: human HEK293 embryonic kidney cells stably expressing firefly luciferase (HEK-CMV-Luc2-Hygro)
Reagent: single siRNA against human genes, 0.8 pmol siRNA per well
Timing: 72 h
Detection: 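Luciferase light (ONE-Glo) measured on one replicate plate set and viability (CellTiter-Glo) on the other, scaled to a negative control siRNA, with robust z-scores and luciferase per cell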
Scale: total luciferase, z-score: higher = more reporter protein produced
Rule for the call: 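Active when the median/MAD z-score for overall luciferase is greater than 3; a gene was taken forward for validation with new siRNAs if at least two of its three siRNAs passed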
Meaning of the calls: active = raised luciferase; inactive = no rise

total luciferase, z-score, by gene symbol and reagent
OR2G2: #1 4.15 (active); #2 0.805; #3 0.627
E2F3: #1 0.0481; #2 -0.195; #3 -0.473
CRP: #1 -1.14; #2 0.137; #3 0.283
FBRS: #1 4.44 (active); #2 0.893; #3 0.695
LOC729369: #1 -1.39; #2 -0.404; #3 -1.05
PFDN5: #1 1.11; #2 2.71; #3 -1.54
KRT36: #1 1.29; #2 -1.28; #3 -0.779
INPP5F: #1 -0.487; #2 1.68; #3 -0.841
CYP17A1: #1 -0.667; #2 -0.726; #3 0.127
LINC00518: #1 -1.57; #2 1.35; #3 0.558
ZNF628: #1 0.654; #2 1.21; #3 2
DRC11: #1 0.271; #2 0.673; #3 -0.938
ADARB1: #1 1.14; #2 -0.711; #3 -0.759
NF2: #1 0.935; #2 -0.264; #3 0.65
NINJ2: #1 -1.24; #2 -0.347; #3 1.42
ITFG2: #1 1.49; #2 -0.848; #3 -0.221
GNAZ: #1 0.281; #2 0.606; #3 3.14 (active)
WNT4: #1 -2.43; #2 2.78; #3 0.57
TRMT10B: #1 -0.47; #2 -0.297; #3 -0.241
SCAF11: #1 0.378; #2 0.22; #3 -1.31
CEP104: #1 -0.457; #2 0.321; #3 0.373
GFRAL: #1 2.18; #2 -0.649; #3 -0.128
KLK5: #1 0.735; #2 1.58; #3 0.925
RPS25P4: #1 -1.01; #2 -0.131; #3 -0.401
RRN3: #1 -1.32; #2 -2.1; #3 -0.896
